In article doi:10.1101/551549:
Results are given in words; binding and its absence hold for the method and conditions named.

Molecular target: Can f 6 (dog) (UniProt H2B3G5)
Experiment: SEC

binding: no binding
B1: Can f 6 (protein, UniProt H2B3G5 16-190)
chain: HEEENDVVKGNFDISKISGDWYSILLASDIKEKIEENGSMRVFVKDIEVLSNSSLIFTMHTKVNGKCTKISLICNKTEKDGEYDVVHDGYNLFRIIETAYEDYIIFHLNNVNQEQEFQLMELYGRKPDVSPKVKEKFVRYCQGMEIPKENILDLTQVDRCLQARQSEAAQVSSAE
